Results from publication PMC10319584.
Results are given in words; binding and its absence hold for the method and conditions named. Binding seen in cells or lysates may run through a third protein. Some results given as binding are weak or reduced against the parent protein; the word gives no strength. For some assays here: Tags and fused reporters may be left off the sequences shown.

Columns and labels:
Fra-1-D1 (1-107 aa) = molecular target: T1, Fra-1-D1 (1-107 aa) (UniProt P15407); assay: co-IP; SGC7901 cells expressing full length Fra-1 or HA-tagged D1, D2, D3; IP-HA; western blot
T1 sequence: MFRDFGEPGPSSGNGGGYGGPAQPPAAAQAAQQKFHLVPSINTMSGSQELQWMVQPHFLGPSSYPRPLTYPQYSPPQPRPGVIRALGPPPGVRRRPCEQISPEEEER

Fra-1-D2 (1-127 aa) = molecular target: T2, Fra-1-D2 (1-127 aa) (UniProt P15407); assay: as above
T2 sequence: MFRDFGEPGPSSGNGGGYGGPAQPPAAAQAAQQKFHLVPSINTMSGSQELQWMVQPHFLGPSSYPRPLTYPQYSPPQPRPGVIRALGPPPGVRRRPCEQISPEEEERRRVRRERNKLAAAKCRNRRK

Fra-1-D3 (107-271 aa) = molecular target: T3, Fra-1-D3 (107-271 aa) (UniProt P15407); assay: as above
T3 sequence: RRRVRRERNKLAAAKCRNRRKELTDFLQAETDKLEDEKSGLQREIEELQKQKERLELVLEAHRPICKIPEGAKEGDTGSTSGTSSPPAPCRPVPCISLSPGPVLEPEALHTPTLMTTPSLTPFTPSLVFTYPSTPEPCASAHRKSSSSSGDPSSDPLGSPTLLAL

[1] = molecular target: T4, Fra-1-FL (full length Fra-1 of the domain-mapping IP) (UniProt P15407); assay: as above
T4 sequence: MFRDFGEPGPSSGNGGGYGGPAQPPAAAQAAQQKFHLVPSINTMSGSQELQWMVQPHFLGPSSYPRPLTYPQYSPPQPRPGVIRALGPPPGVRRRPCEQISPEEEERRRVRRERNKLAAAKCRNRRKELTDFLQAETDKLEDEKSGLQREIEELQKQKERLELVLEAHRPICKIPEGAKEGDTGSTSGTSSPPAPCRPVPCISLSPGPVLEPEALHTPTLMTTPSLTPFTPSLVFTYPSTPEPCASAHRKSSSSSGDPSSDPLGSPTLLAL

[2] = molecular target: T5, FLAG-Fra-1 (Fos-related antigen 1) (UniProt P15407); assay: co-IP; SGC7901 cell lysate, IP lysis buffer, protein A+G beads, 4°C overnight; FLAG lane (proteins binding to Fra-1) against IgG lane; western blot for 14-3-3 family members
T5 sequence: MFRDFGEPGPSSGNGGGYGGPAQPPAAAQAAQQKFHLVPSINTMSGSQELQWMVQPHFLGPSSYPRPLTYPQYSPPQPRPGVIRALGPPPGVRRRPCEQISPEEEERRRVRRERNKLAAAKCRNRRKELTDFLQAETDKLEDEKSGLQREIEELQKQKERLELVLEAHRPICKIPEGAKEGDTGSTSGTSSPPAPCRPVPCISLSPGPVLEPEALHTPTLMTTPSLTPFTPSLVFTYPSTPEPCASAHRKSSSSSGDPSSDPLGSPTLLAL

binding (Fra-1-D1 (1-107 aa)): binds
binding (Fra-1-D2 (1-127 aa)): binds
binding (Fra-1-D3 (107-271 aa)): binds
binding [1]: binds
binding [2]: binds
B1: tyrosine 3-monooxygenase/tryptophan 5-monooxygenase activation protein eta (YWHAH) (protein, UniProt Q04917 1-246)
chain: MGDREQLLQRARLAEQAERYDDMASAMKAVTELNEPLSNEDRNLLSVAYKNVVGARRSSWRVISSIEQKTMADGNEKKLEKVKAYREKIEKELETVCNDVLSLLDKFLIKNCNDFQYESKVFYLKMKGDYYRYLAEVASGEKKNSVVEASEAAYKEAFEISKEQMQPTHPIRLGLALNFSVFYYEIQNAPEQACLLAKQAFDDAIAELDTLNEDSYKDSTLIMQLLRDNLTLWTSDQQDEEAGEGN
